Results deposited as PubChem BioAssay AID686938 (Drosophila RNAi Screening Center, 2013).
Screen: 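Looking for CRAC channel components and the factors controlling them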 (primary screen). Cell system: Drosophila S2R+ cells. Reagents: long dsRNA against Drosophila genes, about 0.25 µg dsRNA per well, roughly 10,000 cells. Timing: 5 days of knock-down before the calcium assay. Conditions: thapsigargin (SERCA pump blocker) to empty calcium stores; entry signal taken 4 min after adding it. Measured: 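Per-well fluo-4 fluorescence in two replicates, unnormalised, measured in resting cells and 4 min after store depletion by the SERCA blocker thapsigargin; ratio of the two present in few wells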. Direction: calcium entry signal: higher = stronger calcium signal after store depletion; resting calcium signal: higher = higher resting calcium signal. Hit rule: 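Called when the plate z-score of the entry-to-rest ratio, mean of duplicates, falls below −3; wells with low overall dye signal (Fmax z below −2) or more than five off-targets excluded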. Meaning of the calls: active = strongly reduced calcium entry; inactive = no strong reduction.
The deposit covers about 23,000 reagents; shown is an unselected part of those that have a named target and a result. Of all reagents, 75 (0.33%) were called active. 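Raw plate signals without normalisation; calls rest on plate z-scores that were not deposited; ratio present for only 364 wells.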 Not stated in the record: the dose of the treatment.

CG34012 [DRSC09089] showed calcium entry signal, replicate 1 (fluorescence units) = 3.50e7; calcium entry signal, replicate 2 (fluorescence units) = 3.19e7; resting calcium signal, replicate 1 (fluorescence units) = 1.80e7; resting calcium signal, replicate 2 (fluorescence units) = 1.54e7; inactive.
After knock-down of Dscam3 [DRSC14525], the record shows calcium entry signal, replicate 1 (fluorescence units) = 4.53e7; calcium entry signal, replicate 2 (fluorescence units) = 5.09e7; resting calcium signal, replicate 1 (fluorescence units) = 2.15e7; resting calcium signal, replicate 2 (fluorescence units) = 8.19e7; inactive.
Against Dscam3 [DRSC16376], the entry reads calcium entry signal, replicate 1 (fluorescence units) = 4.04e7; calcium entry signal, replicate 2 (fluorescence units) = 4.52e7; resting calcium signal, replicate 1 (fluorescence units) = 1.91e7; resting calcium signal, replicate 2 (fluorescence units) = 7.30e7; inactive.
Knock-down of Golgin97 [DRSC06895] came out at: calcium entry signal, replicate 1 (fluorescence units) = 2.50e7; calcium entry signal, replicate 2 (fluorescence units) = 2.62e7; resting calcium signal, replicate 1 (fluorescence units) = 1.12e7; resting calcium signal, replicate 2 (fluorescence units) = 1.26e7; inactive.
Depletion of Atg2 [DRSC08273] gave: calcium entry signal, replicate 1 (fluorescence units) = 4.31e7; calcium entry signal, replicate 2 (fluorescence units) = 3.63e7; resting calcium signal, replicate 1 (fluorescence units) = 2.13e7; resting calcium signal, replicate 2 (fluorescence units) = 1.72e7; inactive.
rudhira [DRSC19821] scored calcium entry signal, replicate 1 (fluorescence units) = 2.40e7; calcium entry signal, replicate 2 (fluorescence units) = 2.84e7; resting calcium signal, replicate 1 (fluorescence units) = 1.38e7; resting calcium signal, replicate 2 (fluorescence units) = 1.45e7; inactive.
Silencing of rudhira [DRSC22111] resulted in: calcium entry signal, replicate 1 (fluorescence units) = 3.97e7; calcium entry signal, replicate 2 (fluorescence units) = 5.43e7; resting calcium signal, replicate 1 (fluorescence units) = 1.91e7; resting calcium signal, replicate 2 (fluorescence units) = 2.83e7; inactive.
rudhira [DRSC23144] scored calcium entry signal, replicate 1 (fluorescence units) = 3.11e7; calcium entry signal, replicate 2 (fluorescence units) = 4.45e7; resting calcium signal, replicate 1 (fluorescence units) = 1.68e7; resting calcium signal, replicate 2 (fluorescence units) = 1.92e7; inactive.

2 neighbouring reagents from above, for reference:
rudhira [DRSC22111] → calcium entry signal, replicate 1 (fluorescence units): 3.97e7; calcium entry signal, replicate 2 (fluorescence units): 5.43e7; resting calcium signal, replicate 1 (fluorescence units): 1.91e7; resting calcium signal, replicate 2 (fluorescence units): 2.83e7; call: inactive
rudhira [DRSC23144] → calcium entry signal, replicate 1 (fluorescence units): 3.11e7; calcium entry signal, replicate 2 (fluorescence units): 4.45e7; resting calcium signal, replicate 1 (fluorescence units): 1.68e7; resting calcium signal, replicate 2 (fluorescence units): 1.92e7; call: inactive

Next reagents follow.
Knock-down of CG34125 [DRSC00850] resulted in: calcium entry signal, replicate 1 (fluorescence units) = 4.25e7; calcium entry signal, replicate 2 (fluorescence units) = 3.76e7; resting calcium signal, replicate 1 (fluorescence units) = 2.21e7; resting calcium signal, replicate 2 (fluorescence units) = 1.82e7; inactive.
Against CG16837 [DRSC04283] the deposit lists calcium entry signal, replicate 1 (fluorescence units) = 4.52e7; calcium entry signal, replicate 2 (fluorescence units) = 4.35e7; resting calcium signal, replicate 1 (fluorescence units) = 2.17e7; resting calcium signal, replicate 2 (fluorescence units) = 1.83e7; inactive.
Against Set8 [DRSC15473], the entry reads calcium entry signal, replicate 1 (fluorescence units) = 2.66e7; calcium entry signal, replicate 2 (fluorescence units) = 2.92e7; resting calcium signal, replicate 1 (fluorescence units) = 1.35e7; resting calcium signal, replicate 2 (fluorescence units) = 1.61e7; inactive.
Ctl2 [DRSC14423] scored calcium entry signal, replicate 1 (fluorescence units) = 3.14e7; calcium entry signal, replicate 2 (fluorescence units) = 4.44e7; resting calcium signal, replicate 1 (fluorescence units) = 1.49e7; resting calcium signal, replicate 2 (fluorescence units) = 2.24e7; inactive.
Depletion of hpRNA:CR18854 [DRSC02702] resulted in: calcium entry signal, replicate 1 (fluorescence units) = 3.51e7; calcium entry signal, replicate 2 (fluorescence units) = 3.97e7; resting calcium signal, replicate 1 (fluorescence units) = 1.77e7; resting calcium signal, replicate 2 (fluorescence units) = 1.76e7; inactive.
For CG31371 [DRSC15079], the values are calcium entry signal, replicate 1 (fluorescence units) = 3.74e7; calcium entry signal, replicate 2 (fluorescence units) = 4.77e7; resting calcium signal, replicate 1 (fluorescence units) = 1.97e7; resting calcium signal, replicate 2 (fluorescence units) = 1.92e7; inactive.
